Among the data in paper PMC4489913 are binding values, retold here.

Chains of the proteins cited; added tags and fusions are not shown.
UniProt P31977: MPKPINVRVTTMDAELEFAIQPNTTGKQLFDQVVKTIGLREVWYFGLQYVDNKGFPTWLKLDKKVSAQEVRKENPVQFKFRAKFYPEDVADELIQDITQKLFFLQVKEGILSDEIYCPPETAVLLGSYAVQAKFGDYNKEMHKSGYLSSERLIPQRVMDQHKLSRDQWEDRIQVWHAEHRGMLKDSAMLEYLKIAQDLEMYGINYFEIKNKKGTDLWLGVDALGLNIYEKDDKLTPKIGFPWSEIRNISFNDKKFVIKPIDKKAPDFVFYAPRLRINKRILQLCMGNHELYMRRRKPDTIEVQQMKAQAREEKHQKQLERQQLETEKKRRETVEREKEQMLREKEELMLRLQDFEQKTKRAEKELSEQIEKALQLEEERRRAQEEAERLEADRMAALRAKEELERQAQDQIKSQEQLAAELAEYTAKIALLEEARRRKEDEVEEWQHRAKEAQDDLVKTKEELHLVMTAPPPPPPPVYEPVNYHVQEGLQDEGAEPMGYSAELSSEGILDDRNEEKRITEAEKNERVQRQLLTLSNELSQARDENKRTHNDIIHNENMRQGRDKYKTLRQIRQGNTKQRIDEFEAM
UniProt Q9EPT8: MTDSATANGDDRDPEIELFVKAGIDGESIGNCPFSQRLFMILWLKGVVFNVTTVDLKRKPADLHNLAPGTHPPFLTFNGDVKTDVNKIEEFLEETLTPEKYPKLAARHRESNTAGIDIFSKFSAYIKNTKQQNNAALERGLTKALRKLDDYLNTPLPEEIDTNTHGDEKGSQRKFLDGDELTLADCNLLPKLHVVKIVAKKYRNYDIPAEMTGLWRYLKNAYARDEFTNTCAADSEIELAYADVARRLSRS

Assay in all cases: co-IP; 18-month rat liver tumors; Pierce Co-IP kit; immunoprecipitation with anti-EZR, anti-PODXL or anti-CLIC5 antibody, Western blot
(In general: In western blotting, separated proteins are transferred to a membrane and probed.)

For assay [1], the target named is Ezrin (rat (endogenous in Fischer 344 rat liver tumors)) (UniProt P31977).
The target of assay [2] is T1, Podocalyxin (rat (endogenous in Fischer 344 rat liver tumors)) (UniProt Q9WTQ2).
T1 sequence: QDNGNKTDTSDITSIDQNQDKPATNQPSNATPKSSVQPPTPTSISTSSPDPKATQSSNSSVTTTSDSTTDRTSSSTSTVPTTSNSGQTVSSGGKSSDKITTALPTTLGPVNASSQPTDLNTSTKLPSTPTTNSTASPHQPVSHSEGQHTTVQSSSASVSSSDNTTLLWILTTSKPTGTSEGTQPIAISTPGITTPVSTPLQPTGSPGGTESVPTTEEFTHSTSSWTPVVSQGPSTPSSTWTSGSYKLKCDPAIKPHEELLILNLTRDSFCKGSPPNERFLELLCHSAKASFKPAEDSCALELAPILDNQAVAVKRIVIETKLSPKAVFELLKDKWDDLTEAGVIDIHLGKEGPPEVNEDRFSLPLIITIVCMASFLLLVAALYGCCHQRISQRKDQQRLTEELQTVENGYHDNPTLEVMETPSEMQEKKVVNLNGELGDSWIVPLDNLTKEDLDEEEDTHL

Assay [3] addresses Chloride intracellular channel 5 (rat (endogenous in Fischer 344 rat liver tumors)) (UniProt Q9EPT8).

No constants are given. Whether binding was seen depends on the method and setting. In cells and extracts the contact can be indirect. Some binding calls cover weakened binding; strength is not graded here.

As for “Chloride intracellular channel 5 (from UniProt Q9EPT8 1-251)”, the binding result in assay [1] and in assay [2] was “binds” throughout. With Ezrin (from UniProt P31977 1-586), the binding result in assay [3] is given as “binds”.

B1: Podocalyxin (protein, UniProt Q9WTQ2 25-485)
chain: T1 sequence
Turning to B1, the binding entry in assay [3] is recorded as “binds”.
